Experimental data published in the supplement of paper PMC10849652.
The other results are listed elsewhere or left out.

By UniProt entry, the sequences of proteins in these tests, tags left out. Where a name states a change or a piece, a line headed by the entry shows the natural chain unless it says otherwise.
UniProt O75439: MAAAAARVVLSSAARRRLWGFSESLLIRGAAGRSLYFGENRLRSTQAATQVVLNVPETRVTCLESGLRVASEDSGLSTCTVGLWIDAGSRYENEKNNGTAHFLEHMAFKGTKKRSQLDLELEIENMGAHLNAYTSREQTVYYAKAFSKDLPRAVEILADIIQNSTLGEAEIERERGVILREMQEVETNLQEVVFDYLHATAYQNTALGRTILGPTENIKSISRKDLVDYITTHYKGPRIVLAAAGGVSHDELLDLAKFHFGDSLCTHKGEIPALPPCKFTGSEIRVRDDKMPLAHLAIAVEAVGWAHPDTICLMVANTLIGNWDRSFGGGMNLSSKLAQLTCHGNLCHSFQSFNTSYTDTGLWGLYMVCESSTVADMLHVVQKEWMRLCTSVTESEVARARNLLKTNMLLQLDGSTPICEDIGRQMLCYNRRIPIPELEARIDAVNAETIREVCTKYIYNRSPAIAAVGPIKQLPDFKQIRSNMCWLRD
UniProt O75145: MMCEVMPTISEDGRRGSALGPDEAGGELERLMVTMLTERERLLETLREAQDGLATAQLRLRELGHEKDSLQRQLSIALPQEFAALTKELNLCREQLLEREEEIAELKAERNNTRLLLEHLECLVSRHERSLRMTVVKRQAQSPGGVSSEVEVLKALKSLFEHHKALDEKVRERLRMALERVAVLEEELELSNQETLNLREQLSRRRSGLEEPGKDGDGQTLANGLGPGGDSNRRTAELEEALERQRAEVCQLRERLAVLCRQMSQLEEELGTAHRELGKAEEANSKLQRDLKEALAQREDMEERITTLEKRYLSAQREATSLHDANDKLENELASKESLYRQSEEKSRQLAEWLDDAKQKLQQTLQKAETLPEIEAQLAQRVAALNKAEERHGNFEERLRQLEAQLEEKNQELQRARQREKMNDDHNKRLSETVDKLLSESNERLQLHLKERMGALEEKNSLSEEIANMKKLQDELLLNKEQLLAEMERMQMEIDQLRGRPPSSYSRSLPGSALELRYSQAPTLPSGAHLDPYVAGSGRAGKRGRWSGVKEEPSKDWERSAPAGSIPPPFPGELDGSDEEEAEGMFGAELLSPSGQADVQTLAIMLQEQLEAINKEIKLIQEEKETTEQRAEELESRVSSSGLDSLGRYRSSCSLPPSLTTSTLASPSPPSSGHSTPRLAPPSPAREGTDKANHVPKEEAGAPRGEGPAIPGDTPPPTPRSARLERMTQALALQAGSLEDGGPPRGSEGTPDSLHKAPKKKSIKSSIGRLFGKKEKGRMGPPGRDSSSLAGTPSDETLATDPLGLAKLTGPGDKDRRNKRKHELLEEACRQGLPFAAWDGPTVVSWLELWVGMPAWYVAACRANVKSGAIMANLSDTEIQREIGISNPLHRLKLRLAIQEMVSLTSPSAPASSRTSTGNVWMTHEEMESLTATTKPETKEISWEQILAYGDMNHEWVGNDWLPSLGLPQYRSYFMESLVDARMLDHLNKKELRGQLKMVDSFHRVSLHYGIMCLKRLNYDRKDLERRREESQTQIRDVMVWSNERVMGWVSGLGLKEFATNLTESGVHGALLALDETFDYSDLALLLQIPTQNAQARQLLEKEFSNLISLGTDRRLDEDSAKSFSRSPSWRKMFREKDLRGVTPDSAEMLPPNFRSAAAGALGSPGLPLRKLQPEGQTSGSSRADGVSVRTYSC
UniProt A8CG34, whole entry, looked up: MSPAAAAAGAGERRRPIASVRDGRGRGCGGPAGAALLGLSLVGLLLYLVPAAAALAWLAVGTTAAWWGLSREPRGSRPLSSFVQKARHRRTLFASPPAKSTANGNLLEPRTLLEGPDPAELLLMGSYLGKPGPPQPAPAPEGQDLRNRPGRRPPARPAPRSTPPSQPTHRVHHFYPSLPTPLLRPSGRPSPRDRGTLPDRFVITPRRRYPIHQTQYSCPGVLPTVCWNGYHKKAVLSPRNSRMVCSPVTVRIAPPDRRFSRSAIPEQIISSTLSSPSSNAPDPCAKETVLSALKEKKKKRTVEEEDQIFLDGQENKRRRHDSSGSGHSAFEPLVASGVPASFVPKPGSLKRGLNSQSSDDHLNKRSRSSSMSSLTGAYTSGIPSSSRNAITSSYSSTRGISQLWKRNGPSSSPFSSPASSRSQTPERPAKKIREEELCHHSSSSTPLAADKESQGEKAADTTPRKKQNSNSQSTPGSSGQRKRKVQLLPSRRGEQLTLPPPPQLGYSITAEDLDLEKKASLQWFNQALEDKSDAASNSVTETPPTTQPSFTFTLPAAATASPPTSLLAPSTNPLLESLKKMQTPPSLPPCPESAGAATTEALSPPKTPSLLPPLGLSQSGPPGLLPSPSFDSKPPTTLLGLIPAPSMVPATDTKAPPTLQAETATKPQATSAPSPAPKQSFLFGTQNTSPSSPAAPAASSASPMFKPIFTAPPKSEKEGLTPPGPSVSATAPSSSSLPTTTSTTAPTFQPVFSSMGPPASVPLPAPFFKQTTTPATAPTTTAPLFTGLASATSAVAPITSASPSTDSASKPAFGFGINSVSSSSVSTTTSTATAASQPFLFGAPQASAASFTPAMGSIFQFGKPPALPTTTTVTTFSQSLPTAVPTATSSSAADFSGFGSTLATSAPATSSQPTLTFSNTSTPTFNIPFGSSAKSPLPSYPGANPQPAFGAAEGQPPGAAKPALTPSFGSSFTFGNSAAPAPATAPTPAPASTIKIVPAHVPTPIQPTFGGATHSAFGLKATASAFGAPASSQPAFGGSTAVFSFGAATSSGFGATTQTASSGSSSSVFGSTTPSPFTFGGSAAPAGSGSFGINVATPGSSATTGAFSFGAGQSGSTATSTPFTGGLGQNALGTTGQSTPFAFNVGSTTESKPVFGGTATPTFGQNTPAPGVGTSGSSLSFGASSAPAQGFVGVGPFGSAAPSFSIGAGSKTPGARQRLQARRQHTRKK
UniProt Q9BUI4: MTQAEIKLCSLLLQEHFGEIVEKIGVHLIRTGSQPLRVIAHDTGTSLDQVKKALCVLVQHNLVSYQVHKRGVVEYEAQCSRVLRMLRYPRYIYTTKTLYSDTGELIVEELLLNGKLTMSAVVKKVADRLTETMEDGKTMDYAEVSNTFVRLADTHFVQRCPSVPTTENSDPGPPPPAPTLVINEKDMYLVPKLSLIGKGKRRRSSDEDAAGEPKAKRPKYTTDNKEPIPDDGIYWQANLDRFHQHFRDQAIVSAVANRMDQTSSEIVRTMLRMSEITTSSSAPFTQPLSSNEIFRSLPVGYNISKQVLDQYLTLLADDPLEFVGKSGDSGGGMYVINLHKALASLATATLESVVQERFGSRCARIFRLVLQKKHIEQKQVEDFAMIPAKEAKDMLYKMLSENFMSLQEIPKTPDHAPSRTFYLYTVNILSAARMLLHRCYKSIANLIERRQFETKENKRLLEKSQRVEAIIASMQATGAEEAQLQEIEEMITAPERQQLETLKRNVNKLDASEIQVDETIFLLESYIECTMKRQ
UniProt Q08752, whole entry, looked up: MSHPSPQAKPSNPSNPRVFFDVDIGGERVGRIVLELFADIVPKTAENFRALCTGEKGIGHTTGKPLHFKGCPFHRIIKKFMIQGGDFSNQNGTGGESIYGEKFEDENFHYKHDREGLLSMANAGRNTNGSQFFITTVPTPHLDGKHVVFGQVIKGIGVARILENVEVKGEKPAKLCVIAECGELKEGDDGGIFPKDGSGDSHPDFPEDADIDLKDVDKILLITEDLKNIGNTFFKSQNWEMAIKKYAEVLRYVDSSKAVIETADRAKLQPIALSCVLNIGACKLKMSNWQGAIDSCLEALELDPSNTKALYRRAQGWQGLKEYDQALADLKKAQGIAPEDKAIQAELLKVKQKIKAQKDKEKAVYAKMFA
UniProt Q9NVS9: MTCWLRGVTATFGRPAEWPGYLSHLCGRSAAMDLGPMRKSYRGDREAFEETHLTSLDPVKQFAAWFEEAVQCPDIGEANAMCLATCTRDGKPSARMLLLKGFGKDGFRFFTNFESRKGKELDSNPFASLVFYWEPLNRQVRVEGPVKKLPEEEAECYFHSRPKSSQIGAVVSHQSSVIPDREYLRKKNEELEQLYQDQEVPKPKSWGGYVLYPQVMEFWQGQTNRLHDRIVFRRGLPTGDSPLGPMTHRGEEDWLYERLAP
UniProt P53350, whole entry, looked up: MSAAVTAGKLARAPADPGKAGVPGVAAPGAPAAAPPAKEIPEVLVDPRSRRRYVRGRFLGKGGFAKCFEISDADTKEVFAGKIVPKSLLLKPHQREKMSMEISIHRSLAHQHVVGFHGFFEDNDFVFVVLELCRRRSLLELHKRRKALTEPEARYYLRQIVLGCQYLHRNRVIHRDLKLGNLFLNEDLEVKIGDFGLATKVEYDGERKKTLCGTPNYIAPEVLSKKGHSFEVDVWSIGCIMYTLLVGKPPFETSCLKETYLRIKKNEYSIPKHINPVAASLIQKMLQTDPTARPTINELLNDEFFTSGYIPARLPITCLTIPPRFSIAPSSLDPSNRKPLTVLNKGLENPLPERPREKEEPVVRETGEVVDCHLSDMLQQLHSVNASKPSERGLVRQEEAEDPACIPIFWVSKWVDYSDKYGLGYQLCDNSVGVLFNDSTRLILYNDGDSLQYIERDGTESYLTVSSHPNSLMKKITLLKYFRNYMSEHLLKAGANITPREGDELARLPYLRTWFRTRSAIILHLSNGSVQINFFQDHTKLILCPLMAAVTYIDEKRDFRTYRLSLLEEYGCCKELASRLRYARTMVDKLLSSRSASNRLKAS
UniProt Q68D20: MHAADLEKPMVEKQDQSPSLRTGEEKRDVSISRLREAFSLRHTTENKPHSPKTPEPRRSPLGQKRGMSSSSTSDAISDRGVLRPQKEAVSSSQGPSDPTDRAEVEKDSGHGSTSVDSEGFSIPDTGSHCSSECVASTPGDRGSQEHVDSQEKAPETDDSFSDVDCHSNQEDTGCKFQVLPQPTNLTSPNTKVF
UniProt P0DPB6, whole entry, looked up: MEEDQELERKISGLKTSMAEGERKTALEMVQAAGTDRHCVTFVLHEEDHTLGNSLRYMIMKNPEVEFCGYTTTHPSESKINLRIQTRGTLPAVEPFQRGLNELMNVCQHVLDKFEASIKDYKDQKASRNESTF
UniProt O15160, whole entry, looked up: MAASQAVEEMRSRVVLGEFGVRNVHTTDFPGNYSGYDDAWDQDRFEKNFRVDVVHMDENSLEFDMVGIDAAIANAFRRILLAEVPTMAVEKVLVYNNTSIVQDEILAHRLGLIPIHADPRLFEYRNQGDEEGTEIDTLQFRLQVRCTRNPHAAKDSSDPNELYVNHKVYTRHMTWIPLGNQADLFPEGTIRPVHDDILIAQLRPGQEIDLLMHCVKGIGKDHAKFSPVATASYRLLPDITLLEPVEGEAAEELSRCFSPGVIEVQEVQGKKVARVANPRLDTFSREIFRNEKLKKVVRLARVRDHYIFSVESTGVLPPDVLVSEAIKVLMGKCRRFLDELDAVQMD
UniProt Q9Y244: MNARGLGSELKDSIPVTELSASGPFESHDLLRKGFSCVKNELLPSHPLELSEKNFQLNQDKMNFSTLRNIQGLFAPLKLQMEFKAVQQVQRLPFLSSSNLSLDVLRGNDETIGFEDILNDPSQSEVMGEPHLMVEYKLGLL

Experiments:
Assay in all cases: log2 fold change, soluble protein after heating vs DMSO (PISA); higher = thermal stabilisation; K562 lysate, 10 uM; active = over 0.2 and 3.5 SD of the protein, either way, in both replicates (recomputed)
ibrutinib = compound: C=CC(=O)N1CCC[C@@H](n2nc(-c3ccc(Oc4ccccc4)cc3)c3c(N)ncnc32)C1 [ibrutinib]
Summary of the method: (§1)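 Values give the log-two fold change in thermal stability against solvent controls, from duplicates. Crude K562 extract at 1 mg/mL protein, made by dounce homogenisation in PBS pH 7.4 with 1 mM MgCl2, was treated with 10 μM compound for 30 min. After 3 min heating across 48°C-58°C, aliquots were pooled, adjusted to 0.5% NP-40 at 4°C and centrifuged at 21,000xg for 90 min. The supernatant was measured by TMTpro 16plex LC-MS/MS with channel sums equalised.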

[1] = compound: CC(=O)c1cnc2ccc(-c3cc(Cl)c(O)c(Cl)c3)nc2c1N[C@H]1CC[C@H](CN(C)C)CC1
Summary of the method: as §1

ralimetinib = compound: CC(C)(C)Cn1c(N)nc2ccc(-c3[nH]c(C(C)(C)C)nc3-c3ccc(F)cc3)nc21 [ralimetinib]
Summary of the method: as §1

[2] = compound: CC(C)(O)CC(=O)NCCn1ccc2ncnc(Nc3ccc(Oc4cccc(C(F)(F)F)c4)c(Cl)c3)c21
Summary of the method: as §1

[3] = compound: CC(C)C1=C2N=C(C=C(N2N=C1)NCC3=CC=CC=C3)NCCCCCCN
Summary of the method: as §1

[4] = compound: CC1=C(C(CC(=O)N1)C2=CC=C(C=C2)C(F)(F)F)C(=O)NC3=C(C=C4C(=C3)C=NN4)F
Summary of the method: as §1

[5] = compound: CC1=C(C2=C(C=C1)C(=O)C3=CC=CC=C3N2CCCN)C
Summary of the method: as §1

[6] = compound: CC1=C(C=C(C=C1)NC(=O)C2=CC(=CC=C2)C(C)(C)C#N)NC3=CC4=C(C=C3)N=CN(C4=O)C
Summary of the method: as §1

[7] = compound: CC1=C(C=C(C=C1)NC(=O)C2=CC(=CC=C2)N(C)C)NC(=O)C3=CC=C(C=C3)O
Summary of the method: as §1

[8] = compound: CC1=CC=C(C=C1)SC2=C3C=C(SC3=CN=C2)C(=O)N
Summary of the method: as §1

vemurafenib = compound: CCCS(=O)(=O)Nc1ccc(F)c(C(=O)c2c[nH]c3ncc(-c4ccc(Cl)cc4)cc23)c1F [vemurafenib]
Summary of the method: as §1

[9] = compound: CCCS(=O)(=O)Nc1ccc(F)c(C(=O)c2c[nH]c3ncc(Cl)cc23)c1F
Summary of the method: as §1

barasertib = compound: CCN(CCCOc1ccc2c(Nc3cc(CC(=O)Nc4cccc(F)c4)[nH]n3)ncnc2c1)CCOP(=O)(O)O [barasertib]
Summary of the method: as §1

[10] = compound: CC[C@@H]1C(=O)N(C)c2cnc(Nc3ccc(C(=O)NC4CCN(C)CC4)cc3OC)nc2N1C1CCCC1
Summary of the method: as §1

volasertib = compound: CC[C@@H]1C(=O)N(C)c2cnc(Nc3ccc(C(=O)N[C@H]4CC[C@H](N5CCN(CC6CC6)CC5)CC4)cc3OC)nc2N1C(C)C [volasertib]
Summary of the method: as §1

[11] = compound: CCn1c(C(=O)N(C2CC2)C2CC2)cc2c3c(ncn3C)c(Nc3cc(C)n(C)n3)nc21
Summary of the method: as §1

[12] = compound: CCn1cc(-c2ccnc3[nH]c(-c4cccc(CN(C)C)c4)cc23)c(-c2ccc(NC(=O)N(C)C)cc2)n1
Summary of the method: as §1

[13] = compound: CN1CCC(CNc2ccc3ncc(-c4cccc(OC(F)(F)F)c4)n3n2)CC1
Summary of the method: as §1

saracatinib = compound: CN1CCN(CCOc2cc(OC3CCOCC3)c3c(Nc4c(Cl)ccc5c4OCO5)ncnc3c2)CC1 [saracatinib]
Summary of the method: as §1

sotrastaurin = compound: CN1CCN(c2nc(C3=C(c4c[nH]c5ccccc45)C(=O)NC3=O)c3ccccc3n2)CC1 [sotrastaurin]
Summary of the method: as §1

Measured: log2 fold change

PMPCB (UniProt O75439)
inactive: ibrutinib 0.025 | [1] -0.005 | ralimetinib 0.012 | [2] -0.029 | [3] 0 | [4] -0.026 | [5] 0.021 | [6] 0.001 | [7] 0.012 | [8] 0.013 | vemurafenib -0.026 | [9] -0.038 | barasertib 0.012 | [10] -0.034 | volasertib 0.005 | [11] 0.016 | [12] -0.001 | [13] 0.07 | saracatinib -0.021 | sotrastaurin -0.008

PNKP (UniProt Q96T60)
inactive: ibrutinib -0.009 | [1] -0.031 | ralimetinib -0.015 | [2] -0.035 | [3] -0.34 | [4] -0.022 | [5] 0.001 | [6] -0.016 | [7] 0.159 | [8] -0.051 | vemurafenib 0 | [9] -0.012 | barasertib 0.132 | [10] -0.068 | volasertib -0.1 | [11] -0.04 | [12] -0.236 | [13] 0.174 | saracatinib 0.25 | sotrastaurin 0.027

PPFIA3 (UniProt O75145)
inactive: ibrutinib -0.174 | [1] 0.032 | ralimetinib 0.022 | [2] 0.134 | [3] -0.059 | [4] 0.017 | [5] -0.104 | [7] 0.04 | [8] -0.024 | vemurafenib -0.032 | [9] -0.043 | barasertib 0.042 | volasertib -0.023 | [11] -0.013 | [12] -0.122 | [13] -0.086 | saracatinib -0.022

POTEKP (UniProt Q9BYX7)
inactive: ibrutinib 0.177 | [1] 1.04 | ralimetinib 0.212 | [2] -0.143 | [3] -0.19 | [4] -0.08 | [5] -0.247 | [6] 1.79 | [7] -0.322 | [8] -0.077 | [9] 0.224 | barasertib 0.772 | volasertib -0.083 | [11] 0.973 | saracatinib 0.049 | sotrastaurin -0.171

POM121C (UniProt A8CG34)
inactive: ibrutinib -0.167 | [1] 0.008 | ralimetinib -0.127 | [2] 0.016 | [3] 0.028 | [7] -0.028 | [8] 0.034 | [9] -0.037 | barasertib 0.201 | volasertib -0.101 | [11] 0.045 | [12] 0.146 | [13] 0.158

POLR3C (UniProt Q9BUI4)
inactive: ibrutinib 0 | [1] -0.001 | ralimetinib 0.041 | [2] -0.002 | [3] 0.003 | [4] 0.015 | [5] -0.005 | [6] 0.011 | [7] -0.004 | [8] -0.011 | vemurafenib -0.026 | [9] 0.007 | barasertib 0.019 | [10] 0.026 | volasertib 0 | [11] -0.02 | [12] -0.024 | [13] 0.026 | saracatinib -0.001 | sotrastaurin -0.009

PPID (UniProt Q08752)
inactive: ibrutinib -0.023 | [1] 0.005 | ralimetinib -0.005 | [2] 0.019 | [3] 0.001 | [4] -0.02 | [5] 0.021 | [6] -0.011 | [7] 0.014 | [8] 0.005 | vemurafenib -0.014 | [9] 0.002 | barasertib 0 | [10] -0.03 | volasertib -0.025 | [11] 0.01 | [12] 0.063 | [13] -0.133 | saracatinib -0.018 | sotrastaurin -0.018

PNPO (UniProt Q9NVS9)
inactive: ibrutinib 0.056 | [1] -0.004 | ralimetinib -0.033 | [2] 0.019 | [3] 0.022 | [4] 0.034 | [5] 0.081 | [6] -0.025 | [7] -0.034 | [8] -0.003 | vemurafenib -0.269 | [9] 0.021 | barasertib -0.022 | [10] -0.216 | volasertib -0.066 | [11] 0.008 | [12] 0.103 | [13] -0.047 | saracatinib -0.007 | sotrastaurin 0.019

PLK1 (UniProt P53350)
inactive: ibrutinib -0.004 | [1] 0.069 | ralimetinib 0.009 | [2] 0.015 | [3] 0.068 | [4] 0.022 | [5] -0.019 | [6] 0.032 | [7] 0.036 | [8] -0.014 | vemurafenib 0.053 | [9] -0.009 | barasertib 0.003 | volasertib -0.009 | [11] 0.014 | [12] 0.165 | [13] -0.279 | saracatinib 0.021
active: sotrastaurin -0.335

POLR2L (UniProt P62875)
inactive: ibrutinib -0.005 | [1] 0.012 | ralimetinib -0.035 | [2] -0.002 | [3] -0.083 | [4] 0.022 | [5] 0.036 | [6] -0.055 | [7] -0.095 | [8] -0.011 | vemurafenib -0.046 | [9] -0.008 | barasertib 0.208 | [10] -0.132 | volasertib -0.001 | [11] 0.01 | [12] 0.022 | [13] -0.097 | saracatinib -0.058 | sotrastaurin -0.05

PMS2CL (UniProt Q68D20)
inactive: ibrutinib 0.127 | [1] -0.007 | ralimetinib -0.028 | [2] -0.066 | [6] -0.071 | [7] 0.015 | [8] -0.034 | [9] 0.178 | barasertib -0.069 | volasertib -0.039 | [11] -0.06 | sotrastaurin -0.008

POLR2F (UniProt P61218)
active: [12] 1.25
inactive: ibrutinib 0.02 | [1] 0.051 | ralimetinib -0.238 | [2] -0.059 | [3] -0.11 | [4] -0.039 | [5] 0.096 | [6] 0.009 | [7] -0.157 | [8] 0.009 | vemurafenib 0.077 | [9] -0.018 | barasertib 0.034 | [10] -0.043 | volasertib 0.036 | [11] 0.078 | [13] -0.211 | saracatinib -0.042 | sotrastaurin 0.02

POLR2I (UniProt P36954)
inactive: ibrutinib 0.031 | [1] 0.038 | ralimetinib -0.023 | [2] 0.03 | [3] -0.172 | [4] -0.105 | [5] 0.085 | [6] 0.103 | [7] -0.145 | [8] 0.047 | vemurafenib -0.036 | [9] 0.04 | barasertib 0.087 | volasertib -0.023 | [11] 0.06 | [12] 0.078 | [13] -0.04 | saracatinib -0.074 | sotrastaurin -0.299

POLR1D (UniProt P0DPB6)
inactive: ibrutinib 0.027 | [1] 0.031 | ralimetinib 0.088 | [2] -0.015 | [3] 0.019 | [4] -0.031 | [5] -0.012 | [6] 0.034 | [7] 0.04 | [8] 0.011 | vemurafenib 0.01 | [9] -0.012 | barasertib 0.124 | [10] 0.028 | volasertib 0.034 | [11] -0.048 | [12] -0.092 | [13] 0.041 | saracatinib 0.009 | sotrastaurin 0.086

POLR1C (UniProt O15160)
inactive: ibrutinib -0.041 | [1] -0.013 | ralimetinib 0.012 | [2] -0.018 | [3] 0.029 | [4] 0.003 | [5] 0.017 | [6] 0.024 | [7] 0.012 | [8] 0.017 | vemurafenib -0.033 | [9] 0.012 | barasertib 0.047 | [10] -0.034 | volasertib -0.039 | [11] 0.004 | [12] -0.022 | [13] 0.014 | saracatinib 0.002 | sotrastaurin 0.031

POMP (UniProt Q9Y244)
inactive: ibrutinib -0.025 | [1] -0.043 | ralimetinib -0.001 | [2] -0.033 | [3] -0.013 | [4] 0.016 | [5] -0.09 | [6] 0.048 | [7] 0.027 | [8] -0.001 | vemurafenib -0.022 | [9] 0.001 | barasertib -0.034 | [10] 0.039 | volasertib -0.007 | [11] -0.028 | [12] 0.065 | [13] -0.061 | saracatinib 0.056 | sotrastaurin -0.064

POLR2J (UniProt P52435)
inactive: ibrutinib 0.039 | [1] 0.07 | ralimetinib 0 | [2] -0.035 | [3] 0.032 | [4] 0.023 | [5] 0.001 | [6] 0.048 | [7] 0.07 | [8] 0.094 | [9] -0.002 | barasertib 0.057 | [10] 0.029 | volasertib -0.027 | [11] 0.065 | saracatinib 0.002 | sotrastaurin -0.02

Retrieved one by one from the entries so far, two records:
POTEKP (UniProt Q9BYX7)
inactive: ibrutinib 0.177 | [1] 1.04 | ralimetinib 0.212 | [2] -0.143 | [3] -0.19 | [4] -0.08 | [5] -0.247 | [6] 1.79 | [7] -0.322 | [8] -0.077 | [9] 0.224 | barasertib 0.772 | volasertib -0.083 | [11] 0.973 | saracatinib 0.049 | sotrastaurin -0.171

POLR3C (UniProt Q9BUI4)
inactive: ibrutinib 0 | [1] -0.001 | ralimetinib 0.041 | [2] -0.002 | [3] 0.003 | [4] 0.015 | [5] -0.005 | [6] 0.011 | [7] -0.004 | [8] -0.011 | vemurafenib -0.026 | [9] 0.007 | barasertib 0.019 | [10] 0.026 | volasertib 0 | [11] -0.02 | [12] -0.024 | [13] 0.026 | saracatinib -0.001 | sotrastaurin -0.009
